In the supplement of paper PMC6411743 one finds NP40-soluble protein abundance data, which are given here for 21 targets.

Sequences of proteins named here, by UniProt entry; tags and fusion partners are left off. A change or cut given only in a name is not applied to a line headed by its entry.
UniProt P63104: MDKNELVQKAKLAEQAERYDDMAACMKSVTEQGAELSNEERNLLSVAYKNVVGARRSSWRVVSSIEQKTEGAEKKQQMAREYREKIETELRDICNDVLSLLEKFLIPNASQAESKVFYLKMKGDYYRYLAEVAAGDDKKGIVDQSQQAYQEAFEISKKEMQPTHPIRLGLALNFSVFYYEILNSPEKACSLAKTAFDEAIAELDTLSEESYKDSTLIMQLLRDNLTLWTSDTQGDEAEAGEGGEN
UniProt P55769: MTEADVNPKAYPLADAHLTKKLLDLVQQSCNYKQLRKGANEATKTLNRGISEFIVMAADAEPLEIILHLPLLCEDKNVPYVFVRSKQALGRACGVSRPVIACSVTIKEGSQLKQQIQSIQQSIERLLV
UniProt P53992: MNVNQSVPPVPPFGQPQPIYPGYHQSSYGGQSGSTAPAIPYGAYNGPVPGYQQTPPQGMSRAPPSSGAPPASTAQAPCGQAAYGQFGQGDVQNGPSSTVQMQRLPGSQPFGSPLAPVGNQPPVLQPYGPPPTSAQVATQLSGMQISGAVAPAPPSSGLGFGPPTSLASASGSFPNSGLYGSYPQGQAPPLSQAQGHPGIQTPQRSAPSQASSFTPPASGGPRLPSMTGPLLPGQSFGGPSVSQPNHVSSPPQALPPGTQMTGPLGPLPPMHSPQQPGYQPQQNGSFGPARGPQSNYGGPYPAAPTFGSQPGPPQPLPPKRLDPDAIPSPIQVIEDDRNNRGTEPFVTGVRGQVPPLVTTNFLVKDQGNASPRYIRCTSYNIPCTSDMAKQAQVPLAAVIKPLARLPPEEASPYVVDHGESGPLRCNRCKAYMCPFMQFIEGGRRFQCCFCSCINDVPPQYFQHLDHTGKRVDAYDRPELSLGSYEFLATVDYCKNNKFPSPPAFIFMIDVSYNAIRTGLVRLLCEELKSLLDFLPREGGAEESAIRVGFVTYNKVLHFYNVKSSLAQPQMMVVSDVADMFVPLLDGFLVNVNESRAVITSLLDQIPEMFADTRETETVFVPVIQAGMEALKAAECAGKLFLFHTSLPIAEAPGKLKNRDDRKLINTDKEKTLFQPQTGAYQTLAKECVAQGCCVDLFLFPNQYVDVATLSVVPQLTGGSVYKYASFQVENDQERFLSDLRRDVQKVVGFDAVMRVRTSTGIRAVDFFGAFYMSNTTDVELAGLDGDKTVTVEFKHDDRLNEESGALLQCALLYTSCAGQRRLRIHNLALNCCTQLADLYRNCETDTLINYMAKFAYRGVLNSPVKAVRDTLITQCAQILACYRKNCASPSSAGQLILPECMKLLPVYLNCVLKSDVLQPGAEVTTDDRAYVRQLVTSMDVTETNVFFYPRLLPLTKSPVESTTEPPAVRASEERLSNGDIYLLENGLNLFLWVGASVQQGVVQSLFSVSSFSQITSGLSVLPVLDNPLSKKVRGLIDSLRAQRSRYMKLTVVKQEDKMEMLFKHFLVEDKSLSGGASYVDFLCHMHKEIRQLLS
UniProt P55263: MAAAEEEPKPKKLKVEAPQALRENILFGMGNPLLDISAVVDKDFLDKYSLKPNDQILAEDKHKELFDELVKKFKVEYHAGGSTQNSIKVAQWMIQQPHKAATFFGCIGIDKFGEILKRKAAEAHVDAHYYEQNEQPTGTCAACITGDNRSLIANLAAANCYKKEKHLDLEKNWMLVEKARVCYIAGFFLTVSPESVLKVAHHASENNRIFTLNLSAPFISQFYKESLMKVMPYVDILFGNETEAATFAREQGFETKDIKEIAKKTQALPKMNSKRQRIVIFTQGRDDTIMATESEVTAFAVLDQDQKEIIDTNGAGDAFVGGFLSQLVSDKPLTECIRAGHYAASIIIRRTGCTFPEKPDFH
UniProt P62314, whole entry: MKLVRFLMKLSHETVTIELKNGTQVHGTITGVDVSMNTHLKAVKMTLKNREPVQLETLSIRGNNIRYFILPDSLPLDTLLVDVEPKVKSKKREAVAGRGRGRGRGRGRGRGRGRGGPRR
UniProt P67870, whole entry: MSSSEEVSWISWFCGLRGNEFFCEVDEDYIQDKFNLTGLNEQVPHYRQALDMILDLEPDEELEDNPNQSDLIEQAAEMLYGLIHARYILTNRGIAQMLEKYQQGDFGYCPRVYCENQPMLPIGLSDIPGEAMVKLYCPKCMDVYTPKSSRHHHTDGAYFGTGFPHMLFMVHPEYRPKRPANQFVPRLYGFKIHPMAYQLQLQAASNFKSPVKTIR
UniProt P55160: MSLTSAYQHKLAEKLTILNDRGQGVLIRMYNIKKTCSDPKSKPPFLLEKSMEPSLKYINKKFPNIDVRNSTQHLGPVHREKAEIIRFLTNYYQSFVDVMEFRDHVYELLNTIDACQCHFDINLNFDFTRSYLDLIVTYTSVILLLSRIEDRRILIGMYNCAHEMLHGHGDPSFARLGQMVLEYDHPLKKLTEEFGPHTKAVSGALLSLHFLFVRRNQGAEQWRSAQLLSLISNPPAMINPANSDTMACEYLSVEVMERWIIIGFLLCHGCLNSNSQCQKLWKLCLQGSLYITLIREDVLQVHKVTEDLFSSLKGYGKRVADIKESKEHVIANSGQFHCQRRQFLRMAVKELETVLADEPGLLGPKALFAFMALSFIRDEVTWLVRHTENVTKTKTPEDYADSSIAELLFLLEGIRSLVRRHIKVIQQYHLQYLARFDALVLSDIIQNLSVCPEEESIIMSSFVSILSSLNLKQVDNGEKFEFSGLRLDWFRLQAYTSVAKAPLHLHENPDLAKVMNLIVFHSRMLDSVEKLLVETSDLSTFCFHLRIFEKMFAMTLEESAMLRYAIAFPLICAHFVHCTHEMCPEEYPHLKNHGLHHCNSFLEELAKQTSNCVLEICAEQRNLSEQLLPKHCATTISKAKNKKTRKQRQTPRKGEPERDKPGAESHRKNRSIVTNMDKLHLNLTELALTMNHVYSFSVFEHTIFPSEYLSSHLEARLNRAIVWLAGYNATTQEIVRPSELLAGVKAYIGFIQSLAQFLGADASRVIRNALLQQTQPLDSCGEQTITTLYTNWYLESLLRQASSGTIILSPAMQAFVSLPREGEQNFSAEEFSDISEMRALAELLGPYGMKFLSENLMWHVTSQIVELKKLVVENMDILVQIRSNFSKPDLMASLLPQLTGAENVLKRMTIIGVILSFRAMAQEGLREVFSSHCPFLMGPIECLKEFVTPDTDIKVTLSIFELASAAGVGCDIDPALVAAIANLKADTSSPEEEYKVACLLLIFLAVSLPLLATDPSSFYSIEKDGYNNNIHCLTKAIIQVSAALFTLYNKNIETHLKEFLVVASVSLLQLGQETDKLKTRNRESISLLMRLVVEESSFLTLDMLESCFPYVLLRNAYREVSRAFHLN
UniProt P60228, whole entry: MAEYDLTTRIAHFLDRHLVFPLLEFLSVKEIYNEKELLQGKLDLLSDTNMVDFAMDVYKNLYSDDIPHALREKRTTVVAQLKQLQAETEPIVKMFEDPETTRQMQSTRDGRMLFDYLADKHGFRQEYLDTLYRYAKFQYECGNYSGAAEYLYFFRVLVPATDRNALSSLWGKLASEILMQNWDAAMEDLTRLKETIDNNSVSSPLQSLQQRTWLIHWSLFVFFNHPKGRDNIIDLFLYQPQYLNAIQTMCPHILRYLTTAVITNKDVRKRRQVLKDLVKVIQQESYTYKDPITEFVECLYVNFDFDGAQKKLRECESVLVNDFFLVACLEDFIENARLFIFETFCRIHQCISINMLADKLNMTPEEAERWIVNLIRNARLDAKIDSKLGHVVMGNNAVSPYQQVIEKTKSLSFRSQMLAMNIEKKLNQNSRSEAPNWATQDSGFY
UniProt P60903, whole entry: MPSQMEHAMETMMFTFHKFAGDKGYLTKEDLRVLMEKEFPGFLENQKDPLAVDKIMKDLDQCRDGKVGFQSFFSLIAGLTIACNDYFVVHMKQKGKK
UniProt P67809, whole entry: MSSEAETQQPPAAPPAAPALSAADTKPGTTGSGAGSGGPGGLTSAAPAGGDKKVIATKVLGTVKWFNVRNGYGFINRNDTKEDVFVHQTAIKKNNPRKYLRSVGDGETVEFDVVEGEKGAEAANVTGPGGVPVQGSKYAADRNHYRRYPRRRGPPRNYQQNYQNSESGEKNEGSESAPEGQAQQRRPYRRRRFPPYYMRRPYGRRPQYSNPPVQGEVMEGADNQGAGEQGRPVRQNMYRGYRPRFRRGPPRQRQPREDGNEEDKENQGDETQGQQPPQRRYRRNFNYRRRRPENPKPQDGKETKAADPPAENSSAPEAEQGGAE
UniProt P61225: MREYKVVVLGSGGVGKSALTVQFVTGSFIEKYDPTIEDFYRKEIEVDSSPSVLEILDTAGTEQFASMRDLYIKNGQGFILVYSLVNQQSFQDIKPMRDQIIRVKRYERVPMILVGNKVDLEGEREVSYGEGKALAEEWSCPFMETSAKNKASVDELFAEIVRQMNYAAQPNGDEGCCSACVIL
UniProt P62937, whole entry, looked up: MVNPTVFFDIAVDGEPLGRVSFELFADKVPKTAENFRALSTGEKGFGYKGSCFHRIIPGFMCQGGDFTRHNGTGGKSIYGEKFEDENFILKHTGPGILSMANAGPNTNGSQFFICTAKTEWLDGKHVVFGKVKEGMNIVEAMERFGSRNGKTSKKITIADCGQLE
UniProt P56381: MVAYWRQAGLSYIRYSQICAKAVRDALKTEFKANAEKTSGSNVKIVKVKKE
UniProt P61586, whole entry: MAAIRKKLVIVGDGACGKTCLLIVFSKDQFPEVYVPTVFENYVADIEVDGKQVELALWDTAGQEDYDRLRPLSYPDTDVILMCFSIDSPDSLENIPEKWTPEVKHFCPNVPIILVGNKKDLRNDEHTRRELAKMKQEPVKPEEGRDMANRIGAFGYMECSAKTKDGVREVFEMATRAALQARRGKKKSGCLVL
UniProt P53618: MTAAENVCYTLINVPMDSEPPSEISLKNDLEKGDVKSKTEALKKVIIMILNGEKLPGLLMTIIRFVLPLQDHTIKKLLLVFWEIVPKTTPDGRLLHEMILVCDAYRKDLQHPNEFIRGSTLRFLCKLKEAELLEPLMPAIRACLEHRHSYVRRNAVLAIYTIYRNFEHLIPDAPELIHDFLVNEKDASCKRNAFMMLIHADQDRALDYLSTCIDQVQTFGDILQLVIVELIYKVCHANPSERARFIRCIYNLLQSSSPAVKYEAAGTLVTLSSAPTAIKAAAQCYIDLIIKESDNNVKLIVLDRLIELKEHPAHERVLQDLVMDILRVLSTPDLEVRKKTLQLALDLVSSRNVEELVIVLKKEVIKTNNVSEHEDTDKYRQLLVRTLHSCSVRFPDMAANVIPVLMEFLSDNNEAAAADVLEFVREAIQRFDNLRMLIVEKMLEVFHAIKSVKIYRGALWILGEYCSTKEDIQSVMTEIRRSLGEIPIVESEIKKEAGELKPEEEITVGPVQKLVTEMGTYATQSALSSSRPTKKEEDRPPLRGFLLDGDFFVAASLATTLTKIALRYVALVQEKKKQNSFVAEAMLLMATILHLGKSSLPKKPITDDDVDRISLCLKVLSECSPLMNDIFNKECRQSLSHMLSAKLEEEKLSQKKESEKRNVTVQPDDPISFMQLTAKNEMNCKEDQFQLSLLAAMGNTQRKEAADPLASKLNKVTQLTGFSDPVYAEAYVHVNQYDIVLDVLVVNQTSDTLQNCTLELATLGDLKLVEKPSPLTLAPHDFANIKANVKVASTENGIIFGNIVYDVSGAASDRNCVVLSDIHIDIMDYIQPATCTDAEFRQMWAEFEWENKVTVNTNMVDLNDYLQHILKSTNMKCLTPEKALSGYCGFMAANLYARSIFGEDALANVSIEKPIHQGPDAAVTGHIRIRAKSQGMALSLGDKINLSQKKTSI
UniProt P61201: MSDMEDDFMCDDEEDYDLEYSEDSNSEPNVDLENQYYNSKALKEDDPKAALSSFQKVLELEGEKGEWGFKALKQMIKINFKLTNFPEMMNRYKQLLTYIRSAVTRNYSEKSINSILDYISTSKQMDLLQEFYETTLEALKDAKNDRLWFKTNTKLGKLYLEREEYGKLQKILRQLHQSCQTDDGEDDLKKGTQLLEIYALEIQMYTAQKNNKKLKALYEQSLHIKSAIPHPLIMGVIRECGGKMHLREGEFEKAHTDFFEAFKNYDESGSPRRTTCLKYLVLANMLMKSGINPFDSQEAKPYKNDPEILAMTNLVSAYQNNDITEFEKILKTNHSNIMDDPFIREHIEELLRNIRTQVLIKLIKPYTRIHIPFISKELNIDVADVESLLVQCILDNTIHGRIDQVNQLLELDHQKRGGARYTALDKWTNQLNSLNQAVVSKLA
UniProt P60891: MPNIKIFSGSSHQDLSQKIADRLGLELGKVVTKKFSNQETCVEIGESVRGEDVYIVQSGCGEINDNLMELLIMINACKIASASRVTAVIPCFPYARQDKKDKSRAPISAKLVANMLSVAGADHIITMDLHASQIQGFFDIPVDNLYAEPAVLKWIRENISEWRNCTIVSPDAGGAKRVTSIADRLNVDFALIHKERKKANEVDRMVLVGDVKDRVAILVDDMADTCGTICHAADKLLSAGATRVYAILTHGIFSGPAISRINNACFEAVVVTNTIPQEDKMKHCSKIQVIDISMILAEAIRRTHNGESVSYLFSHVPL

± gives the standard deviation of the averaged measurements. The list shows a part of the results, in another mix than the full data. Most values lie at the level of the controls, where differences are scatter.

Compound in this assay: Nc1ncnc2c1ncn2[C@@H]1O[C@H](COP(=O)(O)OP(=O)(O)OP(=O)(O)O)[C@@H](O)[C@H]1O [adenosine triphosphate]
The assay can be described thus: NP40-soluble protein abundance relative to vehicle (solubility fold change) (ratio); higher = more soluble protein in presence of ATP. In short, it runs like this: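 Across three independent experiments, values are fold changes against the detergent-processed vehicle for each replicate, based on vsn-normalised intensities. The samples were Jurkat crude lysate treated with eight concentrations (0.1 to 10 mM) for 10 min at room temperature and then 3 min at 37 °C. Lysate was solubilised with 0.8% NP40 and benzonase, ultracentrifuged, and the supernatant analysed by TMT-labelled LC-MS/MS.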

As to YWHAZ (UniProt P63104), the NP40-soluble protein abundance reads like this: (concentration: 0.1mM) 0.894 ± 0.079; (concentration: 0.5mM) 0.869 ± 0.11; (concentration: 1mM) 0.892 ± 0.2; (concentration: 2mM) 0.94 ± 0.045; (concentration: 4mM) 0.896 ± 0.025; (concentration: 6mM) 0.918 ± 0.17. Besides, the NP40-soluble protein abundance (concentration: 8mM) stood at 0.8927 ± 0.0068 and the NP40-soluble protein abundance (concentration: 10mM) came out at 0.819 ± 0.066.

For UniProt P55769, the NP40-soluble protein abundance by setting is: (concentration: 0.1mM) 0.93 ± 0.13; (concentration: 0.5mM) 0.954 ± 0.15; (concentration: 1mM) 1.03 ± 0.15; (concentration: 2mM) 1.06 ± 0.11; (concentration: 4mM) 1.13 ± 0.13; (concentration: 6mM) 1.23 ± 0.11. Also, the NP40-soluble protein abundance by setting is: (concentration: 8mM) 1.28 ± 0.049; (concentration: 10mM) 1.33 ± 0.24.

Consider SEC24C (UniProt P53992), for which the NP40-soluble protein abundance (concentration: 0.1mM) came out at 1.01 ± 0.039; the NP40-soluble protein abundance (concentration: 0.5mM) is 0.983 ± 0.023; the NP40-soluble protein abundance (concentration: 1mM) came to 0.99 ± 0.055; the NP40-soluble protein abundance (concentration: 2mM) turned out to be 0.987 ± 0.057; the NP40-soluble protein abundance (concentration: 4mM) is 0.98 ± 0.043; the NP40-soluble protein abundance (concentration: 6mM) was 0.919 ± 0.095. Moreover, the NP40-soluble protein abundance reads like this: (concentration: 8mM) 0.981 ± 0.019; (concentration: 10mM) 0.984 ± 0.074.

Turning to ADK (UniProt P55263), the NP40-soluble protein abundance was found to be 1.01 ± 0.063 (concentration: 0.1mM) and 1.05 ± 0.054 (concentration: 0.5mM).

As for UniProt P62314, the NP40-soluble protein abundance runs as follows: (concentration: 0.1mM) 0.928 ± 0.062; (concentration: 0.5mM) 0.973 ± 0.099.

In the case of UniProt P62854, the NP40-soluble protein abundance (concentration: 0.1mM) is 0.915 ± 0.19; the NP40-soluble protein abundance (concentration: 0.5mM) turned out to be 0.862 ± 0.17; the NP40-soluble protein abundance (concentration: 1mM) is 0.92 ± 0.095; the NP40-soluble protein abundance (concentration: 2mM) was 0.912 ± 0.11; the NP40-soluble protein abundance (concentration: 4mM) amounted to 0.911 ± 0.18; the NP40-soluble protein abundance (concentration: 6mM) turned out to be 0.809 ± 0.13. The NP40-soluble protein abundance (concentration: 8mM) is 0.745 ± 0.099 and the NP40-soluble protein abundance (concentration: 10mM) came to 0.843 ± 0.13.

With UniProt P67870 and related entries, the NP40-soluble protein abundance stood at 1.02 ± 0.056 (concentration: 0.1mM); 1.006 ± 0.0087 (concentration: 0.5mM); 0.972 ± 0.024 (concentration: 1mM); 1 ± 0.021 (concentration: 2mM); 1.013 ± 0.0063 (concentration: 4mM); 1.05 ± 0.067 (concentration: 6mM). Further, the NP40-soluble protein abundance (concentration: 8mM) turned out to be 1.07 ± 0.019 and the NP40-soluble protein abundance (concentration: 10mM) came out at 1.04 ± 0.017.

Take NCKAP1L (UniProt P55160): the NP40-soluble protein abundance was determined as 1.05 ± 0.11 (concentration: 0.1mM) and 1.04 ± 0.06 (concentration: 0.5mM).

Turning to RPS3A (UniProt P61247), the NP40-soluble protein abundance (concentration: 0.1mM) turned out to be 0.893 ± 0.11 and the NP40-soluble protein abundance (concentration: 0.5mM) was found to be 0.864 ± 0.11.

For the target UniProt P60228, the NP40-soluble protein abundance is, setting by setting: (concentration: 0.1mM) 0.934 ± 0.049; (concentration: 0.5mM) 0.953 ± 0.043; (concentration: 1mM) 0.999 ± 0.024; (concentration: 2mM) 0.999 ± 0.051; (concentration: 4mM) 1.08 ± 0.035; (concentration: 6mM) 1.23 ± 0.063. Also, the NP40-soluble protein abundance (concentration: 8mM) was 1.34 ± 0.073 and the NP40-soluble protein abundance (concentration: 10mM) turned out to be 1.49 ± 0.12.

Turning to S100A10 (UniProt P60903), the NP40-soluble protein abundance runs as follows: (concentration: 0.1mM) 0.918 ± 0.078; (concentration: 0.5mM) 0.871 ± 0.19.

As for YBX1 (UniProt P67809), the NP40-soluble protein abundance by setting is: (concentration: 0.1mM) 0.966 ± 0.049; (concentration: 0.5mM) 0.976 ± 0.018.

In the case of UniProt P61225, the NP40-soluble protein abundance is 1.03 ± 0.087 (concentration: 0.1mM); 0.987 ± 0.052 (concentration: 0.5mM); 1.01 ± 0.074 (concentration: 1mM); 0.921 ± 0.091 (concentration: 2mM); 0.92 ± 0.082 (concentration: 4mM); 0.846 ± 0.11 (concentration: 6mM). In addition, the NP40-soluble protein abundance reads like this: (concentration: 8mM) 0.932 ± 0.065; (concentration: 10mM) 0.932 ± 0.016.

In the case of UniProt P62937 and related entries, the NP40-soluble protein abundance stood at 0.98 ± 0.12 (concentration: 0.1mM); 1.01 ± 0.083 (concentration: 0.5mM); 0.914 ± 0.063 (concentration: 1mM); 1.02 ± 0.05 (concentration: 2mM); 0.894 ± 0.091 (concentration: 4mM); 0.992 ± 0.084 (concentration: 6mM). Also, the NP40-soluble protein abundance by setting is: (concentration: 8mM) 0.882 ± 0.11; (concentration: 10mM) 0.962 ± 0.056.

Consider UniProt P56381, for which the NP40-soluble protein abundance came out at 1.08 ± 0.16 (concentration: 0.1mM); 0.942 ± 0.16 (concentration: 0.5mM); 2.11 ± 1.8 (concentration: 1mM); 0.927 ± 0.037 (concentration: 2mM); 0.827 ± 0.014 (concentration: 4mM); 1.2 ± 0.39 (concentration: 6mM). In addition, the NP40-soluble protein abundance amounted to 0.93 ± 0.067 (concentration: 8mM) and 0.875 ± 0.046 (concentration: 10mM).

Consider RHOA (UniProt P61586), for which the NP40-soluble protein abundance is, setting by setting: (concentration: 0.1mM) 1 ± 0.046; (concentration: 0.5mM) 1.04 ± 0.049; (concentration: 1mM) 0.996 ± 0.14; (concentration: 2mM) 1.01 ± 0.078; (concentration: 4mM) 0.968 ± 0.06; (concentration: 6mM) 1.09 ± 0.069. Further, the NP40-soluble protein abundance is, setting by setting: (concentration: 8mM) 0.939 ± 0.023; (concentration: 10mM) 0.944 ± 0.027.

RPL10A (UniProt P62906): the NP40-soluble protein abundance reads like this: (concentration: 0.1mM) 1.02 ± 0.036; (concentration: 0.5mM) 1.06 ± 0.038.

In the case of COPB1 (UniProt P53618), the NP40-soluble protein abundance is, setting by setting: (concentration: 0.1mM) 1.03 ± 0.068; (concentration: 0.5mM) 1.04 ± 0.029.

Take UniProt P61201 and related entries: the NP40-soluble protein abundance (concentration: 0.1mM) is 0.966 ± 0.038; the NP40-soluble protein abundance (concentration: 0.5mM) is 0.988 ± 0.056; the NP40-soluble protein abundance (concentration: 1mM) stood at 0.9548 ± 0.0092; the NP40-soluble protein abundance (concentration: 2mM) amounted to 0.945 ± 0.031; the NP40-soluble protein abundance (concentration: 4mM) was 0.9178 ± 0.005; the NP40-soluble protein abundance (concentration: 6mM) worked out at 0.968 ± 0.03. Further, the NP40-soluble protein abundance is, setting by setting: (concentration: 8mM) 0.912 ± 0.043; (concentration: 10mM) 0.916 ± 0.026.

CDKN2D (UniProt P55273): the NP40-soluble protein abundance is, setting by setting: (concentration: 0.1mM) 0.946 ± 0.12; (concentration: 0.5mM) 0.932 ± 0.093; (concentration: 1mM) 0.959 ± 0.065; (concentration: 2mM) 0.928 ± 0.036; (concentration: 4mM) 0.953 ± 0.046; (concentration: 6mM) 0.953 ± 0.019. Further, the NP40-soluble protein abundance was determined as 0.951 ± 0.024 (concentration: 8mM) and 0.872 ± 0.045 (concentration: 10mM).

For UniProt P60891, the NP40-soluble protein abundance (concentration: 0.1mM) stood at 0.9675 ± 0.0038 and the NP40-soluble protein abundance (concentration: 0.5mM) was found to be 1.01 ± 0.038.
